Reference: PubChem BioAssay AID624150 (Cancer Research UK Cambridge, 2012)
Test: 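Find chromatin regulators that change keratinocyte differentiation across several stimuli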 (primary screen). System: primary human epidermal keratinocytes. Reagents: siRNA pool against human genes, 1-2 µM siRNA in 20 µl nucleofection. Duration: 72 h after transfection plus 48 h differentiation (about 5 days). Treatment: five arms for 48 h: vehicle, AG1478 10 µM, BMP2/7 200 ng/ml, both together, or 10% serum. Measurement: 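Per-cell amount of a differentiation marker read by infrared scanning of the plate, given as a z-score within each plate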. Scale: z-score, vehicle and z-score, AG1478 10 µM and z-score, BMP2/7 200 ng/ml and z-score, AG1478 with BMP2/7 and z-score, 10% serum: higher = more differentiation marker per cell.
In all, the deposit lists 331 reagents; below is a random part of them. 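Each arm had three replicate z-scores, but only the first replicate is printed; higher values mean more differentiation marker per cell.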

target,"z-score, vehicle","z-score, AG1478 10 µM","z-score, BMP2/7 200 ng/ml","z-score, AG1478 with BMP2/7","z-score, 10% serum"
NCOA3,1.56,0.267,0.612,0.624,1.8
ATAD2,-0.871,0.464,-0.604,0.72,-0.18
DIDO1,-0.989,-0.775,-0.16,-0.412,-1.13
CBX8,1.01,1.06,1.21,0.741,0.683
MTF2,-0.189,-0.389,-0.464,-0.321,-0.184
KDM6B,-2.2,1.17,1.91,2.01,1.55
SFMBT2,-0.694,-0.12,-0.565,-0.00297,0.705
BAZ2B,0.537,1.08,0.913,0.538,0.508
KDM4D,2.09,0.914,0.455,0.458,1.17
SMYD1,-0.463,0.194,-0.568,0.422,0.703
SP100,-0.591,0.476,-0.12,0.552,0.625
XRCC1,-0.707,0.634,-0.318,0.114,-0.14

Targets listed so far whose target name begins with S or s:
target,"z-score, vehicle","z-score, AG1478 10 µM","z-score, BMP2/7 200 ng/ml","z-score, AG1478 with BMP2/7","z-score, 10% serum"
SFMBT2,-0.694,-0.12,-0.565,-0.00297,0.705
SMYD1,-0.463,0.194,-0.568,0.422,0.703
SP100,-0.591,0.476,-0.12,0.552,0.625

The list goes on:
target,"z-score, vehicle","z-score, AG1478 10 µM","z-score, BMP2/7 200 ng/ml","z-score, AG1478 with BMP2/7","z-score, 10% serum"
PRMT5,-1.03,-0.852,-1.02,-0.991,-0.433
HDGFL3,-1.12,-0.99,-1.78,-1.01,-0.865
HDAC7,0.815,-0.438,0.252,-0.611,-0.00482
TNRC18,-0.829,-1.03,-0.989,1.49,-1.32
TAF1,-0.235,-1.54,0.872,-1.21,-0.0741
SMARCAL1,0.527,0.122,0.26,0.00516,0.18
EZH2,1.85,0.997,0.684,0.818,0.511
SUPT7L,-1.01,-1.07,-1.16,-0.11,-0.845
